We go through one molecule from publication doi:10.1101/287649.

The target of this test is T1, Mcp1 (Schizosaccharomyces pombe) (UniProt O94452).
T1 sequence: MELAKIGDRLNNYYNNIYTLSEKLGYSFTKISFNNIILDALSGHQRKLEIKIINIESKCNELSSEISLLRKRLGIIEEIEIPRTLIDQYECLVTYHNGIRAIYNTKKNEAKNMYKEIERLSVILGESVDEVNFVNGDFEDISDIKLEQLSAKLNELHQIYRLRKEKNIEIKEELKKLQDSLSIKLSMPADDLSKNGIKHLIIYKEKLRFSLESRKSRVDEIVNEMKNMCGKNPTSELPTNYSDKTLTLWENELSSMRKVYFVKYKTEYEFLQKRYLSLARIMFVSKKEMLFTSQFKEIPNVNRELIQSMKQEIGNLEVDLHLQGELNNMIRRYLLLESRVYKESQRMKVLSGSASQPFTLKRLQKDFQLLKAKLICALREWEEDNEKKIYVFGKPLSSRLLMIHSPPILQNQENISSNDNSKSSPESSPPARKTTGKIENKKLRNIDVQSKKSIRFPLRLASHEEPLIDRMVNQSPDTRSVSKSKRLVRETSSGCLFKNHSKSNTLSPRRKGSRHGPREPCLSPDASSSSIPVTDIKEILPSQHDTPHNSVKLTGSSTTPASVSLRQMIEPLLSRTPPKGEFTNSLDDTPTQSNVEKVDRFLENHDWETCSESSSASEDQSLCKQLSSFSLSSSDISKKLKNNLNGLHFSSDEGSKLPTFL
The test can be described thus: co-IP.

Results are given in words; binding and its absence hold for the method and conditions named. In cells and extracts the contact can be indirect. Some entries that bind do so weakly or less than the wild type. Tags and fused reporters may be left off the sequences shown.

B1: Klp5 (protein, UniProt O14343 1-883)
chain: MSRQSSITVTVRVRPFSTAESANLIASSDRLSFGTSSSLRNPGSGRQIRRVVKVLDGRVLVFDPPDETTATLSATNRRLSTSQQSLARLSRKSNNSAGFGRDLRYAFDRVFDETATQQQVYERTARPLLDNILDGFNATIFAYGATGCGKTHTISGTMQDPGLIYLTLKELFERMDHLRDEKIFDLRLSYLEIYNETIRDLLVSPTPNQAKPLNLREDADRRITVPGLTSLSPESLEEIIDIIMKGNANRTMSPTEANAASSRSHAVLQVTLIQKPRTAGINEDHTLATLSIIDLAGSERATATKLRGSRLFEGANINKSLLALGNCINALCDPHRRAHVPYRDSKLTRLLKFSLGGNCRTVMIVCVSPSSVHYEETHNTLKYANRAKNIKTEVLRNMISVDRHVSQYVKAIVELREQISELENRLAQIDLSSQSNGSDQDAVTQSFAHESKLAEARNLLRMTFEETLPLQNDTINKVEKVKHFDDSIRVLKYWLSCYERILPNSADERVFLVRSKLESLLTRRAEIIADIDPELVYQKFQRSVSHIINTYKQEGATMYADVLQDEVDLLKSIIENQVLDAQNKVDEFTPVLESLLRSSFKASSLLKEGGMQELFSILEKWLLGIGLGEKPNISVLSESYKLNSTSDDSRTINRDRVHSFPTQPLLNNNLPRMFFVKSPKKPVVFSKRSPKKRVRFDDSMSTSDSGASAYNSPIQTSKLKNMNFFNTMHMPSTPAHKRPENKNQIDVEINLTSPVSPMLEDKPEPGLLIKSPLEKKQEVNSESTQLDQLLAEDSSTDDVSLPHLDTIDLDGSPVPKVPDLNFSRANMDSPTFILNNEAIHNFDFSKPKTRQSLSSLTTLHLSNPANIIRKSLSMAENEEEKAT
In the case of B1, the binding entry is reported as “binds weakly”.
